# Reference: US9545461B2, “Anti-microbial peptides and methods of use thereof” (priority 2011, dated 2017)
# Part of at least one peptide drawing is inferred or uncertain, most often the ends. Ends that are not written are not given here.
# Key:
# [1] = test system: P. aeruginosa strain PAC1R; test: Antimicrobial activity assay, PAC1R and isogenic LPS mutants; assay type: cell-based, Pseudomonas aeruginosa; conditions: 200 μg/mL; PAC1R vs LPS-defective mutants
# [2] = test system: P. aeruginosa clinical isolate 6294 invasion of TiHCE cells; test: Invasion assay (gentamicin survival) in TiHCE cells; assay type: cell-based, Pseudomonas aeruginosa; conditions: peptide in saline, 2 h
sequence,measurement,setting,value
"RAIGGGLSSVGGGSSTIKY [19mer, RAIGGGLSSVGGGSSTIKY]",effect of LPS mutations on bactericidal activity,[1],only slightly affected
same,protection against bacterial invasion compared to controls,[2],89.1%
